{"sequences": {"note": "Amino acid sequences for entries named in this document (tags omitted). Residues count along the entry.", "UniProt P23219, 24-599": "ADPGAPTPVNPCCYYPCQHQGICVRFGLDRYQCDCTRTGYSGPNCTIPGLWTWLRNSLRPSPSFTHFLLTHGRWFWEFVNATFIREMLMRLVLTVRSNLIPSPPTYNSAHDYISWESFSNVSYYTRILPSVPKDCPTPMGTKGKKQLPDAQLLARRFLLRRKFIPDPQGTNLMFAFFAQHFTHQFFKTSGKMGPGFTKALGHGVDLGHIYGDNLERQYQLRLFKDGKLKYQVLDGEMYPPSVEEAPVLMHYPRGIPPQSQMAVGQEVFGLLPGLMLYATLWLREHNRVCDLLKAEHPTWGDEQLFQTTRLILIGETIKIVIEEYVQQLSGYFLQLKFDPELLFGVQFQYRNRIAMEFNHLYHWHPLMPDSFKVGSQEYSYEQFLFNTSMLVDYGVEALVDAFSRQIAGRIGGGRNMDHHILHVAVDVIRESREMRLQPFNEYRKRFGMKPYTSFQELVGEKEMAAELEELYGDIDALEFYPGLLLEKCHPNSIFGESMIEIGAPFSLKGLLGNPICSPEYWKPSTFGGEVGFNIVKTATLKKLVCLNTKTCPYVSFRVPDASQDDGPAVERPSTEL"}, "source": "patent US4698344A", "about": "“1-Heteroaryl-4-aryl-pyrazolin-5-ones for use as medicaments” (priority 1984, dated 1987)", "format_in_all_cases": "cell-based", "key": {"5-lipoxygenase": {"molecular_target": "T1, 5-lipoxygenase (Homo sapiens, UniProt P09917)", "T1 construct": "endogenous in cells; host or cells: human polymorphonuclear leukocytes from heparinized whole blood", "T1 sequence (P09917 1-674)": "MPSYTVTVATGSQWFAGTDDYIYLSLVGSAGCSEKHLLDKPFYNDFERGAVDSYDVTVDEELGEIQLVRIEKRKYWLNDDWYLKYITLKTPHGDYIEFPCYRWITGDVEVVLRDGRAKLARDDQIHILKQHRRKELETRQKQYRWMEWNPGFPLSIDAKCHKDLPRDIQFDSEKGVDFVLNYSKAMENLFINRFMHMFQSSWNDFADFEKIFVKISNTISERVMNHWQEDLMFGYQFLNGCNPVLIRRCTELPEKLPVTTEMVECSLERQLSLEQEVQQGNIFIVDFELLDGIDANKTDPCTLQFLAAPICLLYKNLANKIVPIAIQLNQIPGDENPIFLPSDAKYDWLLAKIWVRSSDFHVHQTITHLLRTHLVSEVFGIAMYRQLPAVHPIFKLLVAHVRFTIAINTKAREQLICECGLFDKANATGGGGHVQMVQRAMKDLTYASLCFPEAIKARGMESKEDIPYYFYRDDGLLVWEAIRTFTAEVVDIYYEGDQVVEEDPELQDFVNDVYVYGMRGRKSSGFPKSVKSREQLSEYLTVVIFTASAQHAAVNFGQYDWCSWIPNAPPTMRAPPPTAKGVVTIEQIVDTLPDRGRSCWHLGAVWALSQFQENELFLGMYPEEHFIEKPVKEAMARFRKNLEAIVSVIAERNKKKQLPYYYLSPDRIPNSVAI", "assay": "Lipoxygenase activity (LTB4 synthesis) in human PMN leukocytes stimulated with A 23187", "conditions": "human PMN's", "description": "The polymorphonuclear leukocytes of humans metabolize arachidonic acid to give 5-hydroxy-5,8,11,14-eicosatetraenoic acid (5-HETE) and leukotriene B4 (5S, 12R-dihydroxy-6-cis, 8,10-trans-14ciseicosatetraenoic acid). Inhibition of the release of 5-HETE and leukotriene B4 from leukocytes is a measure of the lipoxygenase-inhibiting effect of the compounds according to the invention.\nAfter 15 minutes, the lipoxygenase products were extracted from the acidified incubation medium and separated by means of HPLC."}, "12-lipoxygenase": {"molecular_target": "T2, 12-lipoxygenase (Homo sapiens, UniProt P18054)", "T2 construct": "washed human platelets; endogenous in cells; host or cells: washed human platelets", "T2 sequence (P18054 1-663)": "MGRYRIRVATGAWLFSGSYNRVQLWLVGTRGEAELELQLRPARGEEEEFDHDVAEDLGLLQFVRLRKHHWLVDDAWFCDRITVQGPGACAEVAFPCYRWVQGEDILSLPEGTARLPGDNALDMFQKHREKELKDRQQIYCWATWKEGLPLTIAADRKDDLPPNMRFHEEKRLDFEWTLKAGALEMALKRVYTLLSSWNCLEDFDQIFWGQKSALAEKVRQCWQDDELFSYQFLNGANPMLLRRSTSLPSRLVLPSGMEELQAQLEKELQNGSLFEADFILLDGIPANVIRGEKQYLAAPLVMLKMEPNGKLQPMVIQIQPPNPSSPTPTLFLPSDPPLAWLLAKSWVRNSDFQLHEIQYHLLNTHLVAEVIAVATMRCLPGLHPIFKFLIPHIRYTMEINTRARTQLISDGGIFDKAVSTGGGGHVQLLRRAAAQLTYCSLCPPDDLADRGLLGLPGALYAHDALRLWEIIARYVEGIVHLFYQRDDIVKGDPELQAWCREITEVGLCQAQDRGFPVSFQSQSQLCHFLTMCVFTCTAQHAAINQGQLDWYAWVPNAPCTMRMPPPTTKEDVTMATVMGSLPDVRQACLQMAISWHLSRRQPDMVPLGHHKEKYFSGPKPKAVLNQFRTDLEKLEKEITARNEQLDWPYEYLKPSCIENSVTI", "assay": "Arachidonic acid metabolism in human platelets: 12-lipoxygenase activity", "description": "(§1) The metabolism of radioactively labelled arachidonic acid on washed human platelets is utilised in this test method. In this in vitro test, the radioactively labelled metabolites are extracted from the reaction mixture and separated by thin layer chromatography. The autoradiogram is evaluated with a thin layer scanner. Under these test conditions, the labelled metabolites are separated from the unreacted arachidonic acid and can then be evaluated quantitatively."}, "cyclooxygenase": {"molecular_target": "T3, cyclooxygenase (Homo sapiens, UniProt P23219)", "T3 construct": "washed human platelets; endogenous in cells; host or cells: washed human platelets", "assay": "Arachidonic acid metabolism in human platelets: cyclooxygenase activity", "description": "as §1"}}, "note": "For at least one compound, name, drawing or mass did not settle the structure.", "data": [{"smiles": "O=c1c(-c2ccccc2)c[nH]n1-c1ccccn1", "note": "[Example 7, 1-pyrid-2-yl-4-phenyl-pyrazolin-5-one]", "values": [{"measurement": "Effective threshold concentration, inhibition of LTB4 synthesis", "setting": "5-lipoxygenase", "result": "1 to 10", "unit": "µg/mL"}, {"measurement": "Inhibition (threshold concentration), 12-lipoxygenase", "setting": "12-lipoxygenase", "result": "< 0.1", "unit": "µg/mL"}, {"measurement": "Inhibition (threshold concentration), cyclooxygenase", "setting": "cyclooxygenase", "result": "< 0.1", "unit": "µg/mL"}]}]}
